Values from PubChem BioAssay AID1259424 (University of Nebraska Medical Center, 2018)

- Aim: 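Find knockdowns that reproduce the expression shifts seen after KSR1 loss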 (primary screen)
- Cell system: human HCT116 colon cancer cells
- Reagent: siRNA pool against human genes, 50 nM
- Measurement: 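Log2 levels of six mRNAs (branched-DNA multiplex), adjusted by two reference genes and the non-targeting median, then scored against the average KSR1 knockdown pattern as Pearson r and euclidean distance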
- Reading the numbers: mean correlation with KSR1 profile: higher = expression change more like KSR1 knockdown; mean distance from KSR1 profile: higher = expression change less like KSR1 knockdown
In all, the deposit lists about 14,000 reagents; below is a part drawn at random. 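Higher correlation or smaller distance means closer resemblance to KSR1 loss; control wells, including KSR1 knockdowns, recur on many plates.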 Further read-outs or replicates are left out here. Not stated in the record: the time to read-out.

ACVR1C (activin A receptor type 1C) showed mean correlation with KSR1 profile 0.0988; mean distance from KSR1 profile 2.3.
With knock-down of PFDN4 (prefoldin subunit 4), the screen gave mean correlation with KSR1 profile 0.355; mean distance from KSR1 profile 1.23.
For NOX4 (NADPH oxidase 4), the entry reads mean correlation with KSR1 profile 0.0612; mean distance from KSR1 profile 2.32.
After knock-down of TMED7 (transmembrane p24 trafficking protein 7) the results were mean correlation with KSR1 profile -0.172; mean distance from KSR1 profile 2.1.

A run of entries taken from the entries so far, for reference:
NOX4 (NADPH oxidase 4) — mean correlation with KSR1 profile: 0.0612; mean distance from KSR1 profile: 2.32
TMED7 (transmembrane p24 trafficking protein 7) — mean correlation with KSR1 profile: -0.172; mean distance from KSR1 profile: 2.1

Further results follow:
ASCC1 (activating signal cointegrator 1 complex subunit 1) gave mean correlation with KSR1 profile -0.393; mean distance from KSR1 profile 2.59.
BCAP31 (B cell receptor associated protein 31) gave mean correlation with KSR1 profile -0.106; mean distance from KSR1 profile 2.67.
For BZW2 (basic leucine zipper and W2 domains 2), the values are mean correlation with KSR1 profile 0.0837; mean distance from KSR1 profile 1.82.
Depletion of CADPS (calcium dependent secretion activator) came out at: mean correlation with KSR1 profile -0.266; mean distance from KSR1 profile 3.73.
Against DYNLT1 (dynein light chain Tctex-type 1), the entry reads mean correlation with KSR1 profile -0.0387; mean distance from KSR1 profile 2.1.
SEC14L2 (SEC14 like lipid binding 2) showed mean correlation with KSR1 profile -0.397; mean distance from KSR1 profile 2.83.
Against LAMP2 (lysosome associated membrane protein 2), the values are mean correlation with KSR1 profile 0.324; mean distance from KSR1 profile 2.28.
Knock-down of HMGCS2 (3-hydroxy-3-methylglutaryl-CoA synthase 2) resulted in: mean correlation with KSR1 profile 0.0705; mean distance from KSR1 profile 3.37.
